PubChem BioAssay AID1224826, NIAID | 2016
This is an unselected part of about 17,000 reagents. About 1,110 of all reagents (6.6%) count as active. 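Active means lowered or raised reporter signal; replicate intensities are raw and not normalised per plate.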 Further read-outs or replicates are left out here.

Test: 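Regulators of Tlr4 signalling leading to Tnf-alpha expression in macrophages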 (primary screen)
Cells: RAW264.7 G9 macrophages from mouse bearing reporters for p65 (GFP) and the Tnf promoter (mCherry)
Reagents: siRNA pool against mouse genes, 100 nM
Duration: 16 h of LPS stimulation, after 2 days of siRNA transfection
Conditions: bacterial lipopolysaccharide (Salmonella minnesota R595), 10 ng/ml
Measurement: 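Imaged Tnf reporter mCherry in nuclei, minus background, normalised per plate to the median and expressed as robust z-scores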
Scale: Tnf reporter robust z-score: higher = stronger Tnf promoter reporter signal after LPS
Rule for the call: 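Called active when robust z-score is at most -1.3, matching the median of the Tlr4 knock-down control, or over 3; control wells and wells with under 50 cells never active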
Calls: active = Tnf reporter clearly lowered or raised; inactive = no clear change in Tnf reporter

Rgn
- Tnf reporter robust z-score: 0.93
- fewer than 50 cells in well: enough cells in well
- outcome: inactive

Onecut1
- Tnf reporter robust z-score: -0.6
- fewer than 50 cells in well: enough cells in well
- outcome: inactive

Sh2b1
- Tnf reporter robust z-score: 0.86
- fewer than 50 cells in well: enough cells in well
- outcome: inactive

Cd40lg
- Tnf reporter robust z-score: 0.93
- fewer than 50 cells in well: enough cells in well
- outcome: inactive

Ehd2
- Tnf reporter robust z-score: -0.78
- fewer than 50 cells in well: enough cells in well
- outcome: inactive

Ccdc91
- Tnf reporter robust z-score: 0.47
- fewer than 50 cells in well: enough cells in well
- outcome: inactive

Bmx
- Tnf reporter robust z-score: 1.56
- fewer than 50 cells in well: enough cells in well
- outcome: inactive

Ccdc126
- fewer than 50 cells in well: fewer than 50 cells per well; well left out of calls
- outcome: inactive
